Experimental data published in publication PMC4066782, “The telomerase inhibitor Gno1p/PINX1 activates the helicase Prp43p during ribosome biogenesis” (Nucleic Acids Research, 2014).
These are yes or no findings as the source states them, for the method shown. In cells and extracts the contact can be indirect. Some results given as binding are weak or reduced against the parent protein; the word gives no strength. Sequences can lack the tags named with a protein.

Amino acid sequences for entries named in this document (tags omitted).
UniProt P53742: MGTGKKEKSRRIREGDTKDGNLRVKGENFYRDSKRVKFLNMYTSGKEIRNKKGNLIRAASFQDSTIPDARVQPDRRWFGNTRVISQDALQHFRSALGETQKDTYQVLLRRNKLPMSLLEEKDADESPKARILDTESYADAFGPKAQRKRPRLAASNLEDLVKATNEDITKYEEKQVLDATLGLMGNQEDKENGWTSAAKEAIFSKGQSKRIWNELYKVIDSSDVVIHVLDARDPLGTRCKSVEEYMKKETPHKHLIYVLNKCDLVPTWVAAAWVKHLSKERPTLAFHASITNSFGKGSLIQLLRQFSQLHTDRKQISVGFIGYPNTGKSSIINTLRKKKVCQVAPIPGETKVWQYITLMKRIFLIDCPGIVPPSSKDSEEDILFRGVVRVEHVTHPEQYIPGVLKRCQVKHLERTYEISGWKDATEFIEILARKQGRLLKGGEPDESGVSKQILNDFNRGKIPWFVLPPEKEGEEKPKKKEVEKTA

Tests used:
Assay in all cases: co-IP; IgG sepharose beads precipitate the TAP- or ZZ-tagged protein from total yeast extracts; HA-tagged protein detected by western with anti-HA antibodies
[1] = molecular target: T1, Utp22p-TAP (S. cerevisiae) (UniProt P53254)
T1 sequence: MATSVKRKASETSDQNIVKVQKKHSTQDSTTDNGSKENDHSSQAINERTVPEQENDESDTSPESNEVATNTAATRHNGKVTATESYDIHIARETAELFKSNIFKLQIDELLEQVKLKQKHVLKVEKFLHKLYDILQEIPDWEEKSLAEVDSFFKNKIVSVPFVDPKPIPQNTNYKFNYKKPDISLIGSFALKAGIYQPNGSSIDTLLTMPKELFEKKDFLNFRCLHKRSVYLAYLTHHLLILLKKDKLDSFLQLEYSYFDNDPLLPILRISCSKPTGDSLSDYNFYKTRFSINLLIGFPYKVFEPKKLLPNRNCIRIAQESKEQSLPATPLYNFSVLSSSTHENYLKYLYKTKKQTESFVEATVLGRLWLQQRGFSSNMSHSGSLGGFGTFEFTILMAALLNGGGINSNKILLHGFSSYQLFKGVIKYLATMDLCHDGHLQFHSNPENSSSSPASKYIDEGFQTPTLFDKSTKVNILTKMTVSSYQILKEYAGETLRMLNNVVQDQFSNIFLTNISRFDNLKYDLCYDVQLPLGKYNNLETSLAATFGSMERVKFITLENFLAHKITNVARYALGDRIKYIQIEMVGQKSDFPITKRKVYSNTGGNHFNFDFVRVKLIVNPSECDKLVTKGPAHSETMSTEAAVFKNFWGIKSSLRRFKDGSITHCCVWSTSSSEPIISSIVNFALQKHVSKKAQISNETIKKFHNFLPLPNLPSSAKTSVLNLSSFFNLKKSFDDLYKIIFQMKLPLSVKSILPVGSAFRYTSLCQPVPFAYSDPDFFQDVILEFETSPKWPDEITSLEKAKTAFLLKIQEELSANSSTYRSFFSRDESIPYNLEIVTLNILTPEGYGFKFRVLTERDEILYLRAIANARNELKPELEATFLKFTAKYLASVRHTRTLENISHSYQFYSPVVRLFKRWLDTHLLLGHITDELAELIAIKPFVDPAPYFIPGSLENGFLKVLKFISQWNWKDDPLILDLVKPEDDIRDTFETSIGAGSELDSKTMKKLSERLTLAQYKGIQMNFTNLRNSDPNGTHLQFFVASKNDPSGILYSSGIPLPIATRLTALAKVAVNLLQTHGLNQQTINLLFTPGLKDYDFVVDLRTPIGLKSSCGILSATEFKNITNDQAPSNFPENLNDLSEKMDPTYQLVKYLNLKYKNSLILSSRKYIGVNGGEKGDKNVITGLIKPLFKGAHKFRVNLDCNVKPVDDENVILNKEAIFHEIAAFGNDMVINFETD

[2] = molecular target: T2, Utp18p-TAP (S. cerevisiae) (UniProt P40362)
T2 sequence: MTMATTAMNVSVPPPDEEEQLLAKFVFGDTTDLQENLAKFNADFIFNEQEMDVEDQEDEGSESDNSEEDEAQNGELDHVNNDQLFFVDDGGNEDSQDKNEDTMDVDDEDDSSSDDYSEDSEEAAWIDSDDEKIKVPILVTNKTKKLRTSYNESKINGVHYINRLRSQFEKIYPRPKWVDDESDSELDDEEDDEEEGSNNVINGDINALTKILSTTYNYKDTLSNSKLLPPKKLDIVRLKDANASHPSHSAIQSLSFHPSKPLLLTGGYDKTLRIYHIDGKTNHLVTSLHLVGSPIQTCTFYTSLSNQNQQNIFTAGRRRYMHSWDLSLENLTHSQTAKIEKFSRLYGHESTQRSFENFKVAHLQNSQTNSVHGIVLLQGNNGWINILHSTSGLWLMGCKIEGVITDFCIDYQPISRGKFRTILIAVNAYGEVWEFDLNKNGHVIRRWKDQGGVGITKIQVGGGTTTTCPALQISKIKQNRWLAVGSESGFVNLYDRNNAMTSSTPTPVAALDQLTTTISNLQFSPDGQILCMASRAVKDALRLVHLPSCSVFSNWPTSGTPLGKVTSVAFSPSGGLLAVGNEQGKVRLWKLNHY

[3] = molecular target: Nog2p-TAP (S. cerevisiae) (UniProt P53742)
[4] = molecular target: T3, Arx1p-TAP (S. cerevisiae) (UniProt Q03862)
T3 sequence: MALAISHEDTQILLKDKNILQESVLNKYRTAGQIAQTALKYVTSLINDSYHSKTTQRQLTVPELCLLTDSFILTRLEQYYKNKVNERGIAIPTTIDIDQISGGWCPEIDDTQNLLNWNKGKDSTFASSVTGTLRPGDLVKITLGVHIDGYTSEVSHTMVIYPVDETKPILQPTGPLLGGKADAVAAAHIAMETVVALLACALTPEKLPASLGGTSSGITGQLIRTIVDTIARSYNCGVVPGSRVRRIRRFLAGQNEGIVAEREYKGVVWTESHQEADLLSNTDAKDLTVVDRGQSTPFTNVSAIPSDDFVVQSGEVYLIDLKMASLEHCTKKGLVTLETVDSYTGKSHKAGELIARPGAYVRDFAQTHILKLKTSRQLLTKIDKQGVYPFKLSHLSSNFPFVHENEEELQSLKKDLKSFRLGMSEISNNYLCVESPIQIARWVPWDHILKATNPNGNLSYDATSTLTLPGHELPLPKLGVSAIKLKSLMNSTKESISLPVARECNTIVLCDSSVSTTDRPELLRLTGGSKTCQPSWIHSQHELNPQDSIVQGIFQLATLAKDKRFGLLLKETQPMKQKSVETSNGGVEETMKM

B1: Gno1p-HA (GNO1-HA-TRP1 cassette, made with plasmid pFA6a-3HA-TRP1) (protein, UniProt P53335 1-271)
chain: MGLAATRTKQRFGLDPRNTAWSNDTSRFGHQFLEKFGWKPGMGLGLSPMNSNTSHIKVSIKDDNVGLGAKLKRKDKKDEFDNGECAGLDVFQRILGRLNGKESKISEELDTQRKQKIIDGKWGIHFVKGEVLASTWDPKTHKLRNYSNAKKRKREGDDSEDEDDDDKEDKDSDKKKHKKHKKHKKDKKKDKKDKKEHKKHKKEEKRLKKEKRAEKTKETKKTSKLKSSESASNIPDAVNTRLSVRSKWIKQKRAALMDSKALNEIFMITND
binding [1]: binds
binding [2]: binds
binding [3]: no binding
binding [4]: no binding
